Results deposited as PubChem BioAssay AID1159601 (NIAID, 2016)
Shown is one part, drawn at random, of 756 reagents. 143 of them (19%) were called active. 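Calls include both lowered and raised reporter signal; each row is a single siRNA, not a gene summary; Pam3CSK4 dose not stated.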 Unmarked entries are inactive. The numbers tell different reagents against one gene apart. Reagent sequences are not shown. The record does not give: the amount of reagent.

Screen: 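Genes whose loss changes TNF reporter induction by lipopeptide in human macrophage-like cells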 (primary screen)
Cells: human THP-1 reporter cells differentiated with PMA into macrophage-like cells
Knock-down reagent: single siRNA against human genes
Timing: ligand added 4 hours before read-out; cells assayed 48 to 72 hours after siRNA transfection
Challenge: Pam3CSK4 (TLR2 ligand) for 4 hours; dose not given
Detection: 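TNF promoter dual-luciferase ratio measured 4 h after Pam3CSK4, converted to robust z-scores against negative controls and averaged across replicates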
Scale: TNF reporter z-score: higher = stronger TNF promoter reporter activity
Hit rule: 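Grade increases with absolute z-score, cut points 1, 1.5, 2 and 2.5, both signs; rows called active have z near or beyond ±1.5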
Meaning of the calls: active = clear change (up or down); inactive = little change

target gene	reagent no.	TNF reporter z-score, replicate mean
DUSP1 (dual specificity phosphatase 1)	1	-0.498
DUSP1 (dual specificity phosphatase 1)	2	1.23
DUSP1 (dual specificity phosphatase 1)	3	-0.244
DUSP1 (dual specificity phosphatase 1)	4	1.19
DUSP1 (dual specificity phosphatase 1)	5	-1.05
DUSP1 (dual specificity phosphatase 1)	6	0.441
AKT1 (AKT serine/threonine kinase 1)	1	0.812
AKT1 (AKT serine/threonine kinase 1)	2	-0.127
AKT1 (AKT serine/threonine kinase 1)	3	0.678
AKT1 (AKT serine/threonine kinase 1)	4	-0.298
AKT1 (AKT serine/threonine kinase 1)	5	-0.146
AKT1 (AKT serine/threonine kinase 1)	6	-0.66
IKBKG	1	-2.37 (active)
IKBKG	2	-0.994
IKBKG	3	-0.811
IKBKG	4	-1.52 (active)
IKBKG	5	1.83 (active)
IKBKG	6	-0.136
STAT1 (signal transducer and activator of transcription 1)	1	0.0171
STAT1 (signal transducer and activator of transcription 1)	2	-0.721
STAT1 (signal transducer and activator of transcription 1)	3	0.412
STAT1 (signal transducer and activator of transcription 1)	4	0.18
STAT1 (signal transducer and activator of transcription 1)	5	0.311
STAT1 (signal transducer and activator of transcription 1)	6	0.928
PIK3CD	1	-0.435
PIK3CD	2	-0.651
PIK3CD	3	0.228
PIK3CD	4	0.417
PIK3CD	5	0.761
PIK3CD	6	0.232
NFKB2 (nuclear factor kappa B subunit 2)	1	-0.000724
NFKB2 (nuclear factor kappa B subunit 2)	2	-0.425
NFKB2 (nuclear factor kappa B subunit 2)	3	1.77 (active)
NFKB2 (nuclear factor kappa B subunit 2)	4	-0.0495
NFKB2 (nuclear factor kappa B subunit 2)	5	-1.44
NFKB2 (nuclear factor kappa B subunit 2)	6	0.471
ETS1 (ETS proto-oncogene 1, transcription factor)	1	-0.00851
ETS1 (ETS proto-oncogene 1, transcription factor)	2	-1.68 (active)
ETS1 (ETS proto-oncogene 1, transcription factor)	3	-0.951
ETS1 (ETS proto-oncogene 1, transcription factor)	4	-0.372
ETS1 (ETS proto-oncogene 1, transcription factor)	5	0.883
ETS1 (ETS proto-oncogene 1, transcription factor)	6	-2.25 (active)
MAP3K14 (mitogen-activated protein kinase kinase kinase 14)	1	0.354
MAP3K14 (mitogen-activated protein kinase kinase kinase 14)	2	2.25 (active)
MAP3K14 (mitogen-activated protein kinase kinase kinase 14)	3	-0.564
MAP3K14 (mitogen-activated protein kinase kinase kinase 14)	4	-0.216
MAP3K14 (mitogen-activated protein kinase kinase kinase 14)	5	1.63 (active)
MAP3K14 (mitogen-activated protein kinase kinase kinase 14)	6	-1.48

Hits, among the entries above:
target gene	reagent no.	TNF reporter z-score, replicate mean
IKBKG	1	-2.37 (active)
IKBKG	4	-1.52 (active)
IKBKG	5	1.83 (active)
NFKB2 (nuclear factor kappa B subunit 2)	3	1.77 (active)
ETS1 (ETS proto-oncogene 1, transcription factor)	2	-1.68 (active)
ETS1 (ETS proto-oncogene 1, transcription factor)	6	-2.25 (active)
MAP3K14 (mitogen-activated protein kinase kinase kinase 14)	2	2.25 (active)
MAP3K14 (mitogen-activated protein kinase kinase kinase 14)	5	1.63 (active)

The list goes on.
target gene	reagent no.	TNF reporter z-score, replicate mean
CD14 (CD14 molecule)	1	0.432
CD14 (CD14 molecule)	2	0.00714
CD14 (CD14 molecule)	3	1.75 (active)
CD14 (CD14 molecule)	4	-0.361
CD14 (CD14 molecule)	5	0.257
CD14 (CD14 molecule)	6	0.272
PIK3R3 (phosphoinositide-3-kinase regulatory subunit 3)	1	0.755
PIK3R3 (phosphoinositide-3-kinase regulatory subunit 3)	2	0.225
PIK3R3 (phosphoinositide-3-kinase regulatory subunit 3)	3	-0.706
PIK3R3 (phosphoinositide-3-kinase regulatory subunit 3)	4	-0.677
PIK3R3 (phosphoinositide-3-kinase regulatory subunit 3)	5	1.57 (active)
PIK3R3 (phosphoinositide-3-kinase regulatory subunit 3)	6	-1.26
ATF2 (activating transcription factor 2)	1	-2.34 (active)
ATF2 (activating transcription factor 2)	2	-0.538
ATF2 (activating transcription factor 2)	3	0.0846
ATF2 (activating transcription factor 2)	4	0.309
ATF2 (activating transcription factor 2)	5	0.241
ATF2 (activating transcription factor 2)	6	-1.97 (active)
MAP2K3 (mitogen-activated protein kinase kinase 3)	1	0.0617
MAP2K3 (mitogen-activated protein kinase kinase 3)	2	-0.954
MAP2K3 (mitogen-activated protein kinase kinase 3)	3	-0.497
MAP2K3 (mitogen-activated protein kinase kinase 3)	4	-2.37 (active)
MAP2K3 (mitogen-activated protein kinase kinase 3)	5	0.0677
MAP2K3 (mitogen-activated protein kinase kinase 3)	6	-3.04 (active)
IRAK3 (interleukin 1 receptor associated kinase 3)	1	0.311
IRAK3 (interleukin 1 receptor associated kinase 3)	2	-0.614
IRAK3 (interleukin 1 receptor associated kinase 3)	3	0.093
IRAK3 (interleukin 1 receptor associated kinase 3)	4	-0.191
IRAK3 (interleukin 1 receptor associated kinase 3)	5	-0.732
IRAK3 (interleukin 1 receptor associated kinase 3)	6	-0.614
PIK3R2 (phosphoinositide-3-kinase regulatory subunit 2)	1	0.33
PIK3R2 (phosphoinositide-3-kinase regulatory subunit 2)	2	-1.28
PIK3R2 (phosphoinositide-3-kinase regulatory subunit 2)	3	0.418
PIK3R2 (phosphoinositide-3-kinase regulatory subunit 2)	4	-0.645
PIK3R2 (phosphoinositide-3-kinase regulatory subunit 2)	5	0.125
PIK3R2 (phosphoinositide-3-kinase regulatory subunit 2)	6	0.162
IRF3 (interferon regulatory factor 3)	1	-0.48
IRF3 (interferon regulatory factor 3)	2	-0.314
IRF3 (interferon regulatory factor 3)	3	-1.08
IRF3 (interferon regulatory factor 3)	4	1.13
IRF3 (interferon regulatory factor 3)	5	-1.45
IRF3 (interferon regulatory factor 3)	6	-0.272
CHUK	1	-0.652
CHUK	2	-0.766
CHUK	3	-0.849
CHUK	4	-0.625
CHUK	5	-0.557
CHUK	6	0.363
IL12A (interleukin 12A)	1	0.118
IL12A (interleukin 12A)	2	-0.924
IL12A (interleukin 12A)	3	0.323
IL12A (interleukin 12A)	4	0.0616
IL12A (interleukin 12A)	5	-0.655
IL12A (interleukin 12A)	6	-0.686
TIRAP (TIR domain containing adaptor protein)	1	-1.69 (active)
TIRAP (TIR domain containing adaptor protein)	2	-0.685
TIRAP (TIR domain containing adaptor protein)	3	-3.3 (active)
TIRAP (TIR domain containing adaptor protein)	4	0.551
TIRAP (TIR domain containing adaptor protein)	5	1.22
TIRAP (TIR domain containing adaptor protein)	6	-3.55 (active)
SP1 (Sp1 transcription factor)	1	-3.23 (active)
SP1 (Sp1 transcription factor)	2	-1.57 (active)
SP1 (Sp1 transcription factor)	3	0.344
SP1 (Sp1 transcription factor)	4	1.5 (active)
SP1 (Sp1 transcription factor)	5	0.407
SP1 (Sp1 transcription factor)	6	-1.3
